Measurements reported in publication PMC7449961.
No constants are given. Whether binding was seen depends on the method and setting. In cells and extracts the contact can be indirect. A result given as binding can be weak or reduced; the word gives no strength. Sequences can lack the tags named with a protein.

B1: zebrafish BRCA1-associated protein 1, Myc-tagged (protein, UniProt A1L2G3 1-755)
chain: MNKGWLELESDPGLFTLLVEDFGVKGVQVEEIYDLQSKCQSPVYGFIFLFKWIEERRSRRKVSTLVDETSVIDDDIVNDMFFAHQLIPNSCATHALLSVLLNCSGVELGMTLSRMKAFTKGFNPESKGYAIGNAPELAKAHNSHARPEPRHLPEKQNGISAVRTMEAFHFVSYVPIKDRLFELDGLKAYPIDHGPWGEDEEWTDKARRVIMERIGLATAGEPYHDIRFNLMAVVPDRRIKYESKLDILKRNRQIILEGLQQIREKKVIRMTQQESGQDRKQQDSSSSEDTPPVVKKEEVQETPIPSGAEQATPTEAQEGAASLPSPAGKVRSMAKPALPAGGAPPPAPLPAPSTNTIVQRLPAFLDNHNYAKSPMQEEEDLAAGVGRSRPPQPPYSDDEDDYDDEEEECSTAGVTNSRVRRKLGLRTRTMSRTAVGGVAAMEGQLALSVLAEKLKKEVQRKDALATTGSTPLNVRTEGRTGGISITSACQPSPTPSNESTDTASEIGSAFNSPLRSPARSQATTRPSSPVASHVGRVLFGEEEGLPRLDARHNRAVRDLGVLVSSTQLQLQEDGVIFALPPTEALEGLKKVGGVDKKKKEEASGPGGEEEVKEGPSVEMKAEDVKESVDVKPEKENLPTTDVENSTKPPGEKYTPKELLALLKYVEADIANYEVYLKEEVEKRKKYKIDDQRRTHNYDEFICTFISMLAQEGMLASLVEQNISVRRRQGVSIGRLHKQRKPDRRKRSRPYKAKRQ
B2: zebrafish Tho complex 1, Myc-tagged (protein, UniProt Q7SYB2 1-655)
chain: MSPPSHFDFIEARDKFTVATKNAVDTRNCKPLTTAFSHLPGNETEKKATLDQALRGVLEEQIVNQKVNVDDFLSLIYISIDGVTEGICSATTPFLLLGDVLDCLPLDQCDKIFSFVEENVSTWKSNTFYSAGKNYLLRMCNDLLRRLSKSQNTVFCGRIQLFLARLFPLSEKSGLNLQSQFNLDNITVFNKNEQDSTLGQQHTEVKEEGMDVEEGEMGDEDAPAPSSIPIDYNLYRKFWTLQDYFRNPVQCYDKFSWMTFIKYSDEALAVFKSFKLDDMQASKKKLEEMRTSSGDHVYFAKFLTSEKLMDLQLSDSNFRRHILLQYLILFQYLKGQVKFKSSSCVLNDDQSLWIEDTTKLVYQLLKEIPPDGDKFGSMVEHILNTEENWNSWKNEGCPSFVKERPAETKPIRPSRKRQAPEDFLGKGPDRKILMGNDELTRLWNLNPDNMEACKSENREFMPSLEDFFEEAIEQADPANMVEDEYKVVRNSNYGWRALRLLSRRSPHFFQPTNQQFKSLADYLENMVIKLAKELPKDIPSEEIKTGEEDDDENGDNLLKDSNDSPSIQSKAVTNSQMDEIAAKLGSQWKTLADHLEMSDKEIRVIESDSEDVDLQAKMLLVAWQDREGSQATMESLVTALNAAGFNNIADNLSET

Experiments:
[1] = target: zebrafish Udu with only the PAH/SANT domain, Flag-tagged (zebrafish); test: co-IP; Flag-tagged Udu constructs and Myc-tagged candidates co-transfected in HEK293 or COS-7 cells; lysate (25 mM Tris–HCl pH 7.4, 150 mM NaCl, 1% NP-40, 1 mM EDTA, 5% glycerol) on anti-FLAG M2 magnetic beads overnight at 4 °C; blot with anti-MYC
[2] = target: Full-length zebrafish Udu, Flag-tagged (zebrafish); test: as above

| Binder | binding [1] | binding [2] |
| --- | --- | --- |
| B1 | binds | binds |
| B2 | binds | binds |
